Test results from PubChem BioAssay AID602313 (National Center for Advancing Translational Sciences (NCATS), 2012).
Out of some 390,000 compounds screened, about 760 (0.19%) were called active. Inconclusive means that the source gave no clear call. Such entries were picked first, then a sample of the others. Calls come from the whole dose curve; as a rule, active = well fitted inhibition curve with a large enough effect; inconclusive = small, poorly fitted or top-dose-only effect; inactive = flat fitted curve, though single readings scatter. Potencies of inconclusive entries are doubtful fits and often do not repeat.

assay: qHTS for Inhibitors of Vif-A3F Interactions: qHTS; settings: HeLa A3F-eYFP + Vif (tagged APOBEC3F with the HIV-1 protein that degrades it), YFP fluorescence increase; series mostly up to 46.1 µM; activity, negative = active: at the top concentration; note: nearly all actives have a fitted effect of over 65% in size; for activity, negative = active: % of control where 0% means no effect
Outline: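 Fluorescence increase (Ex 488/Em 500-530) after overnight compound treatment at 37 deg C flags inhibition of Vif-driven A3F-eYFP loss in stable HeLa A3F-eYFP/Vif cells seeded overnight beforehand.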
Potency is the fitted concentration of half-maximal effect.

Structure (SMILES)	Potency	activity, negative = active
CCOCCCn1c(C)nc2c(c1=O)c1nc3ccccc3nc1n2CCC1=CCCCC1	inconclusive: 6.31 µM [inhibitor, single point]	
S=C(NCc1cccs1)Nc1cccc2ccccc12	inconclusive: 35.5 µM [inhibitor, single point]	
CN(C)CCCNC(=O)C[C@H]1C[C@H](C(=O)N2CCCCC2)[C@@]2(C)c3[nH]c4cc(-c5ccco5)ccc4c3CCN2C1=O	inconclusive: 35.5 µM [inhibitor, single point]	
CCCOc1ccc(NC(=O)CC2C(=O)N(c3ccccc3)C(=O)N2Cc2ccc(F)cc2)cc1 (configuration not stated)	inconclusive: 35.5 µM [inhibitor, single point]	
CCOC(=O)c1[nH]c2ccc(Cl)cc2c1NC(=O)/C=C/c1ccc2c(c1)OCO2	inconclusive: 35.5 µM [inhibitor, single point]	
COC(=O)C1=C(C)OC(N)=C(C#N)C1c1cc2cc(C)ccc2nc1Cl (configuration not stated)	inconclusive: 3.16 µM [inhibitor, single point]	
O=C(N/N=C/C=C/c1ccccc1)c1n[nH]c2c1CCC2		inactive: -15.2%
Cc1cc(Cl)ccc1NC(=S)Nc1ccccn1	inconclusive: 20 µM [inhibitor, single point]	
CCC(=O)Nc1ccc(S(=O)(=O)N2CCOCC2)cc1	inconclusive: 3.16 µM [inhibitor, single point]	
C=CC[C@H](CC(=O)N(CCO)Cc1ccccc1)C(=O)N[C@H](COC(=O)[C@@H](CC=C)Cc1ccc(F)cc1)Cc1c[nH]c2ccccc12		inactive: 3.4%
CCCOc1cc(N(CC)CC)ccc1/C=C(/C#N)c1nc2ccc(C)cc2[nH]1	active: 3.16 µM	
Clc1ccc(-c2nnc3sc(-c4ccc(Br)o4)nn23)cc1	inconclusive: 3.16 µM [inhibitor, single point]	
CC(Cc1ccccc1)N1C(=O)c2cccc([N+](=O)[O-])c2C1=O (configuration not stated)	inconclusive: 1.41 µM [inhibitor, partial curve, poor fit]	
CC(=O)NS(=O)(=O)c1ccc(N=c2ssc3c2-c2cc(C)ccc2NC3(C)C)cc1		inactive: 6.08%
COc1ccc(NC(=O)Nc2ccc3c(c2)N(C)C(=O)CS3)cc1Cl	inconclusive: 31.6 µM [inhibitor, single point]	
Cc1ccc(CNc2nc3ccccc3n3nnnc23)cc1	inconclusive: 25.1 µM [inhibitor, single point]	
CCCNS(=O)(=O)c1cc2c(cc1Br)CCN2C(=O)CC	inconclusive: 35.5 µM [inhibitor, single point]	
CC(=O)Nc1ccc2c(c1)Cc1ccc(Cl)cc1-2	inconclusive: 0.562 µM [inhibitor, full curve, poor fit]	
O=C(Nc1ccc(Cl)cc1Cl)c1cc2ccccc2o1	inconclusive: 5.62 µM [inhibitor, single point]	
COc1ccc(Cl)cc1NC(=O)CSc1nc2c([nH]c3ccccc32)c(=O)n1-c1ccccc1	inconclusive: 10 µM [inhibitor, partial curve]	
CN1CCc2nc(SCc3ccc(Cl)cc3)c(C#N)c(-c3cccs3)c2C1	inconclusive: 35.5 µM [inhibitor, single point]	
O=C(NC1CCCCC1)c1nn2c(C(F)(F)F)cc(-c3ccco3)nc2c1Br	inconclusive: 20 µM [inhibitor, partial curve, poor fit]	
Cc1cc(NC(=O)CSc2nnc(-c3ccc4c(c3)OCCO4)o2)no1		inactive: 1.12%

Copied from the entries so far for reference:
Structure (SMILES)	Potency	activity, negative = active
COC(=O)C1=C(C)OC(N)=C(C#N)C1c1cc2cc(C)ccc2nc1Cl (configuration not stated)	inconclusive: 3.16 µM [inhibitor, single point]	
O=C(N/N=C/C=C/c1ccccc1)c1n[nH]c2c1CCC2		inactive: -15.2%
Cc1cc(Cl)ccc1NC(=S)Nc1ccccn1	inconclusive: 20 µM [inhibitor, single point]	

(listing goes on)

Structure (SMILES)	Potency	activity, negative = active
COc1cccc(C2/C(=C(\O)c3ccc4c(c3)OCCO4)C(=O)C(=O)N2CCCn2ccnc2)c1 (configuration not stated)		inactive: 0.346%
COc1cc2c3nnc(-c4ccccc4)c-3cn(Cc3ccccc3F)c2cc1OC	inconclusive: 3.16 µM [inhibitor, full curve, poor fit]	
CCOC(=O)C1=NN(C(=O)c2ccc(OC)cc2)C(O)(c2ccc(Cl)cc2)C1 (configuration not stated)	inconclusive: 35.5 µM [inhibitor, partial curve, poor fit]	
O=C(N/N=C/c1ccc(-c2ccc([N+](=O)[O-])cc2)o1)c1cccnc1	inconclusive: 35.5 µM [inhibitor, single point]	
CCN1/C(=C\C(=S)Nc2ccccc2)Sc2ccccc21		inactive: -6.22%
Cc1c(C(=O)N/N=C/c2cccnc2)sc(N)c1C#N	inconclusive: 22.4 µM [inhibitor, single point]	
N/C(=N\OC(=O)/C=C/c1ccccc1Cl)c1ccncc1		inactive: 20.7%
O=C(N/N=C\c1ccc([N+](=O)[O-])o1)c1cncc(Br)c1	inconclusive: 6.31 µM [inhibitor, single point]	
COC(=O)c1c(Sc2ccccc2)c2ccccc2n1C		inactive: -5.82%
COC(=O)/C=C1\C(=O)N(c2nc3ccccc3s2)C(=S)N1c1ccc(F)cc1	inconclusive: 3.98 µM [inhibitor, single point]	
COc1cc(/C=C/c2nc3ccccc3s2)cc(OC)c1O	inconclusive: 35.5 µM [inhibitor, single point]	
CN(C)c1ccc(/C=C/c2ccncc2)cc1	active: 28.2 µM	
COc1cccc(/C=N/Nc2ncc(C)c(=O)[nH]2)c1OC	inconclusive: 22.4 µM [inhibitor, single point]	
CN1CCOc2ccc(S(=O)(=O)NCCc3ccc(Cl)cc3)cc21	inconclusive: 17.8 µM [inhibitor, partial curve, poor fit]	
CCOc1cc(/C=C2\SC(=O)N(c3ccc(O)cc3)C2=O)ccc1O	inconclusive: 22.4 µM [inhibitor, partial curve, poor fit]	
CCOC(=O)Nc1cc2c(c(N)n1)N=C(c1ccccc1)CN2	active: 22.4 µM	
CCOC(=O)/C=C/C(=O)OCC(=O)Nc1ccc(C)cc1	inconclusive: 22.4 µM [inhibitor, single point]	
Cc1cc(C)cc(-c2nnc(SCC(=O)Nc3cc(C)on3)o2)c1	inconclusive: 6.31 µM [inhibitor, single point]	
COc1ccc(S(=O)(=O)Nc2ccccc2C(N)=O)cc1OC		inactive: 4.55%
CCOCCCNC(=O)c1c(N)n(-c2ccc(S(N)(=O)=O)cc2)c2nc3ccccc3nc12		inactive: -7.54%
Cc1ccc(C)c(N2C(=O)CC(Cc3ccc(Cl)cc3)C2=O)c1 (configuration not stated)	inconclusive: 3.16 µM [inhibitor, partial curve, poor fit]	
Cc1[nH]n(-c2ccccc2)c(=O)c1C(c1ccccc1[N+](=O)[O-])C(C#N)C#N (configuration not stated)		inactive: -4.14%
O=C(/C=C/c1ccc(NC(=O)c2ccccc2-c2ccccc2C(=O)O)cc1)c1ccccc1	inconclusive: 31.6 µM [inhibitor, single point]	

Structure (SMILES)	Potency	activity, negative = active
CN(CC(=O)Nc1cccc(F)c1)C(=O)c1cc(-c2ccco2)nc2ccccc12	inconclusive: 35.5 µM [inhibitor, single point]	
Cc1ccc(-n2nc3c(N4CCC(C(=O)NCc5ccc(C)o5)CC4)nnc(C)c3c2C)cc1	inconclusive: 35.5 µM [inhibitor, single point]	
O=C(CCSc1ccccc1)N1CCCC1	inconclusive: 35.5 µM [inhibitor, partial curve, poor fit]	
COc1ccc(CNC(=O)c2cc3cc4ccc(C)cc4nc3o2)cc1		inactive: -1.42%
N#C/C(=C\c1ccc(-c2ccccc2)cc1)c1nc(-c2ccco2)cs1		inactive: -7.87%
CC12CCC(C(=O)N(CSC(=S)N/N=C\c3ccccc3)C1=O)C2(C)C (configuration not stated)		inactive: 7.05%
O=C(c1ccccc1)N1CCc2ccccc21		inactive: 10.3%
Cc1ccc(S(=O)(=O)c2nnn3c2nc(NCc2ccc4c(c2)OCO4)c2sccc23)cc1	inconclusive: 35.5 µM [inhibitor, single point]	
Cc1ccc(C(=O)Nn2cnnc2)cc1	inconclusive: 35.5 µM [inhibitor, single point]	
Cc1ccc2nc(Cl)c3cc(C(=O)NCCCN4CCCC4)sc3c2c1	inconclusive: 25.1 µM [inhibitor, single point]	
CS(=O)(=O)c1ccccc1-c1nnc(NC(=O)c2ccc3c(c2)OCCO3)o1	inconclusive: 35.5 µM [inhibitor, single point]	
Fc1ccc(Nc2nc(SCc3cccc(Cl)c3)nc3ccccc23)cc1	inconclusive: 35.5 µM [inhibitor, single point]	
CCOC(=O)c1c(NC(=O)CSc2ncnc3ccccc23)sc(C)c1C	inconclusive: 3.55 µM [inhibitor, single point]	
Cc1ccc(C(=O)Nc2cc(C)nn2CCC#N)cc1	inconclusive: 0.891 µM [inhibitor, full curve, poor fit]	
N#CCc1nc2ccc(S(=O)(=O)N3CCOCC3)cc2s1	inconclusive: 3.55 µM [inhibitor, partial curve, poor fit]	
Clc1cccc(CN2CCc3c([nH]c4ccccc34)C2)c1		inactive: 9.1%
Cn1c(=O)c(=O)n(C)c2cc(N3CCCCC3)c(NS(=O)(=O)c3ccc(Br)cc3)cc21		inactive: -8.53%
COc1ccccc1C(NC(C)=O)c1c(O)ccc2ccc(O)cc12 (configuration not stated)	inconclusive: 35.5 µM [inhibitor, single point]	
Cc1cc(C)cc(NC(=O)CSc2nc3c([nH]c4ccccc43)c(=O)n2-c2ccc(F)cc2)c1	inconclusive: 14.1 µM [inhibitor, partial curve, poor fit]	
CCOC(=O)c1c(CC(C)C)csc1/N=C/C1=C(O)CCCC1=O	inconclusive: 35.5 µM [inhibitor, single point]	
COC(=O)C1=C(C)N=c2s/c(=C/c3cccs3)c(=O)n2C1c1cccs1 (configuration not stated)	inconclusive: 22.4 µM [inhibitor, partial curve, poor fit]	

Quoted at random: 2 records from the list, in no set order.
Structure (SMILES)	Potency	activity, negative = active
Cc1ccc(C(=O)Nc2cc(C)nn2CCC#N)cc1	inconclusive: 0.891 µM [inhibitor, full curve, poor fit]	
Cc1c(C(=O)N/N=C/c2cccnc2)sc(N)c1C#N	inconclusive: 22.4 µM [inhibitor, single point]	
